Assay results: patent publication US20220363766A1, “COMPOSITIONS AND METHODS FOR TREATING CYTOTOXIC T CELL RESISTANT TUMORS” (Dana-Farber Cancer Institute, Inc., priority 2019, published 2022)
At least one compound was matched to its structure with a doubt left.

Assays:
A375 melanoma cells [1] = assay: Bulk RNA-seq analysis of human A375 melanoma cells; type: cell-based; details: 50 nM, 24 hours
A375 cells = assay: Real-time quantitative PCR of A375 cells; type: cell-based, human; details: 50 nM, 24 hours
MICA/B = MICA/B surface levels on ZsGreen+ A375 lung metastases in NSG mice; type: in vivo, human; details: panobinostat 10 mg/kg and/or mAb 200 μg, two subsequent days, 24 hours after last treatment
A375 melanoma cells [2] = assay: Humanized mouse model: A375 lung metastases in NSG mice reconstituted with human NK cells; type: in vivo; details: mAb 200 μg, panobinostat 10 mg/kg

Question: Cc1[nH]c2ccccc2c1CCNCc1ccc(/C=C/C(=O)NO)cc1 [panobinostat] was tested. Which “mRNA levels of genes encoding NKG2D ligands (MICA, RAET1G, RAET1L)” value (A375 melanoma cells [1]) did it give?
Answer: increased mRNA levels of multiple genes encoding NKG2D ligands

Question: And the “mRNA levels of genes encoding classical or non-classical MHC-I molecules” value (A375 melanoma cells [1])?
Answer: did not increase mRNA levels of genes encoding classical or non-classical MHC-I molecules

Question: And the “expression of MICA and RAET1L (qPCR)” value (A375 cells)?
Answer: increased the expression of MICA and RAET1L

Question: What about the “expression of MICB and ULBP2 (qPCR)” value (A375 cells) of the same molecule?
Answer: increase in MICB and ULBP2

Question: And the “MICA/B surface protein levels on melanoma cells in pulmonary metastases” value (MICA/B)?
Answer: did not significantly increase MICA/B protein levels

Question: And the “number of lung metastases formed by control (B2M wild-type) A375 cells” value (A375 melanoma cells [2])?
Answer: ineffective
